Some entries share one result that the patent states for a list of compounds.
What follows are molecules tested against T1, recombinant human RPE65 and LRAT (Homo sapiens, UniProt Q16518) (assay: Human in vitro isomerase inhibition assay). Details: homogenate of HEK293 cell clone expressing recombinant human RPE65 and LRAT; all-trans-retinol about 20 μM; 37° C., one hour; 11-cis-retinol by HPLC.
T1 construct: expressed in transfected cells; host or cells: HEK293 cell clone (homogenate); CRALBP made in E. coli TOP10
T1 sequence (Q16518 2-533 limits assumed): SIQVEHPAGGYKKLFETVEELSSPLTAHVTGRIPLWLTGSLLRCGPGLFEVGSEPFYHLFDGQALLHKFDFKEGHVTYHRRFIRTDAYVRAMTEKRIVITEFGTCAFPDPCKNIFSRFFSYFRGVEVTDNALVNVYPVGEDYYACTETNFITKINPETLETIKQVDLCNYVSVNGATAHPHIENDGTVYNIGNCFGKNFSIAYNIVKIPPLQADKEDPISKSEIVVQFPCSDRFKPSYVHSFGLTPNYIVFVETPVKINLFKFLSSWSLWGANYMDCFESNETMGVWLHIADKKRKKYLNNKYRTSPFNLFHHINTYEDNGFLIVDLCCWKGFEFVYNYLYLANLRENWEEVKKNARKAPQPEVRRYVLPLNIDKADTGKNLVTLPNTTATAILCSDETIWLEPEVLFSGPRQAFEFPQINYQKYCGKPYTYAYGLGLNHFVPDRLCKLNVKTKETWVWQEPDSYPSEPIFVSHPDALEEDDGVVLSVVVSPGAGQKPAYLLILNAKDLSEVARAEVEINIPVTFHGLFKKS
Type: biochemical

Row | Compound | IC50 (μM), Human in vitro Inhibition data
1 | NCCC(O)c1ccc(OCC2CCCCC2)s1 (stereo not shown) [Example 1, 3-Amino-1-(5-(cyclohexylmethoxy)thiophen-2-yl)propan-1-ol] | ≦0.1 μM
2 | NCCC(O)c1cccc(OCC2CCCCC2)n1 (stereo not shown) [Example 2, 3-Amino-1-(6-(cyclohexylmethoxy)pyridin-2-yl)propan-1-ol] | ≦0.1 μM
3 | NCCC(O)c1cccc(/C=C/C2CCCCC2)n1 (stereo not shown) [Example 3, (E)-3-Amino-1-(6-(2-cyclohexylvinyl)pyridin-2-yl)propan-1-ol] | ≦0.1 μM
4 | NCCC(O)c1cccc(CCC2CCCCC2)n1 (stereo not shown) [Example 4, 3-Amino-1-(6-(2-cyclohexylethyl)pyridin-2-yl)propan-1-ol] | ≦0.1 μM
5 | NCC[C@@H](O)c1ccc(OCC2CCCCC2)s1 [Example 5, (R)-3-Amino-1-(5-(cyclohexylmethoxy)thiophen-2-yl)propan-1-ol] | ≦0.1 μM
6 | NCC[C@@H](O)c1cccc(OCC2CCCCC2)n1 [Example 6, (R)-3-Amino-1-(6-(cyclohexylmethoxy)pyridin-2-yl)propan-1-ol] | ≦0.1 μM
7 | NCCC(O)c1cncc(/C=C/C2CCCCC2)c1 (stereo not shown) [Example 10, (E)-3-Amino-1-(5-(2-cyclohexylvinyl)pyridin-3-yl)propan-1-ol] | ≦0.1 μM
8 | NCCC(O)c1cncc(CCC2CCCCC2)c1 (stereo not shown) [Example 11, 3-Amino-1-(5-(2-cyclohexylethyl)pyridin-3-yl)propan-1-ol] | ≦0.1 μM
9 | NCCC(O)c1cc(OCC2CCCCC2)ccn1 (stereo not shown) [Example 12, 3-Amino-1-(4-(cyclohexylmethoxy)pyridin-2-yl)propan-1-ol] | ≦0.1 μM
10 | NCCC(O)c1cc(/C=C/C2CCCCC2)cs1 (stereo not shown) [Example 13, (E)-3-Amino-1-(4-(2-cyclohexylvinyl)thiophen-2-yl)propan-1-ol] | ≦0.1 μM
11 | NCCC(O)c1ccc(/C=C/C2CCCCC2)o1 (stereo not shown) [Example 14, (E)-3-Amino-1-(5-(2-cyclohexylvinyl)furan-2-yl)propan-1-ol] | ≦0.1 μM
12 | NCCC(O)c1cc(CCC2(O)CCCCC2)cs1 (stereo not shown) [Example 16, 1-(2-(5-(3-Amino-1-hydroxypropyl)thiophen-3-yl)ethyl)cyclohexanol] | ≦0.1 μM
13 | NCCC(O)c1cc(CCC2CCCCC2)cs1 (stereo not shown) [Example 17, 3-Amino-1-(4-(2-cyclohexylethyl)thiophen-2-yl)propan-1-ol] | ≦0.1 μM
14 | NCCC(O)c1cc(OCC2CCCCC2)cs1 (stereo not shown) [Example 18, 3-Amino-1-(4-(cyclohexylmethoxy)thiophen-2-yl)propan-1-ol] | ≦0.1 μM
15 | CCCC(CCC)COc1cccc([C@H](O)CCN)n1 [Example 19, (R)-3-Amino-1-(6-((2-propylpentyl)oxy)pyridin-2-yl)propan-1-ol] | ≦0.1 μM
16 | NCCC(O)c1csc(/C=C/C2CCCCC2)c1 (stereo not shown) [Example 20, (E)-3-Amino-1-(5-(2-cyclohexylvinyl)thiophen-3-yl)propan-1-ol] | ≦0.1 μM
17 | NCCC(O)c1csc(CCC2CCCCC2)c1 (stereo not shown) [Example 21, 3-Amino-1-(5-(2-cyclohexylethyl)thiophen-3-yl)propan-1-ol] | ≦0.1 μM

Row | Compound | IC50 (μM), Human in vitro Inhibition data
18 | NCCC(O)c1cc(/C=C/C2CCCCC2)co1 (stereo not shown) [Example 22, (E)-3-Amino-1-(4-(2-cyclohexylvinyl)furan-2-yl)propan-1-ol] | ≦0.1 μM
19 | NCCC(O)c1ccc(C#CC2CCCCC2)o1 (stereo not shown) [Example 23, 3-Amino-1-(5-(cyclohexylethynyl)furan-2-yl)propan-1-ol] | ≦0.1 μM
20 | NCCC(O)c1ccc(OCC2CCCCC2)o1 (stereo not shown) [Example 24, 3-Amino-1-(5-(cyclohexylmethoxy)furan-2-yl)propan-1-ol] | ≦0.1 μM
21 | NCC[C@@H](O)c1cccc(SCC2CCCCC2)n1 [Example 25, (R)-3-Amino-1-(6-((cyclohexylmethyl)thio)pyridin-2-yl)propan-1-ol] | ≦0.1 μM
22 | NCC[C@@H](O)c1cccc(OC2CCCCC2)n1 [Example 26, (R)-3-Amino-1-(6-(cyclohexyloxy)pyridin-2-yl)propan-1-ol] | ≦0.1 μM
23 | CCCCC(O)(/C=C/c1cccc([C@H](O)CCN)n1)CCCC [Example 28, (R,E)-5-(2-(6-(3-Amino-1-hydroxypropyl)pyridin-2-yl)vinyl)nonan-5-ol] | ≦0.1 μM
24 | CCC(CC)COc1cccc(C(O)CCN)n1 (stereo not shown) [Example 30, 3-Amino-1-(6-(2-ethylbutoxy)pyridin-2-yl)propan-1-ol] | ≦0.1 μM
25 | NCC[C@@H](O)c1cccc(OCC2CCCCCC2)n1 [Example 31, (R)-3-Amino-1-(6-(cycloheptylmethoxy)pyridin-2-yl)propan-1-ol] | ≦0.1 μM
26 | CCCC(CCC)COc1ccc([C@H](O)CCN)o1 [Example 32, (R)-3-Amino-1-(5-((2-propylpentyl)oxy)furan-2-yl)propan-1-ol] | ≦0.1 μM
27 | NCC[C@@H](O)c1cccc(OCC2CCCC2)n1 [Example 33, (R)-3-Amino-1-(6-(cyclopentylmethoxy)pyridin-2-yl)propan-1-ol] | ≦0.1 μM
28 | NCC[C@@H](O)c1cccc(OC2CCCCCC2)n1 [Example 34, (R)-3-Amino-1-(6-(cycloheptyloxy)pyridin-2-yl)propan-1-ol] | ≦0.1 μM
29 | CCOC(=O)N1CCC(COc2cccc([C@H](O)CCN)n2)CC1 [Example 35, (R)-Ethyl 4-(((6-(3-amino-1-hydroxypropyl)pyridin-2-yl)oxy)methyl)piperidine-1-carboxylate] | ≦0.1 μM
30 | NCC[C@@H](O)c1cccc(OCC2CCN(C(=O)OCc3ccccc3)CC2)n1 [Example 36, (R)-Benzyl 4-(((6-(3-amino-1-hydroxypropyl)pyridin-2-yl)oxy)methyl)piperidine-1-carboxylate] | ≦0.1 μM
31 | CCCC(CCC)COc1cccc(C(=O)CCN)n1 [Example 37, 3-Amino-1-(6-((2-propylpentyl)oxy)pyridin-2-yl)propan-1-one] | ≦0.1 μM
32 | CCCC(CCC)COc1cccc([C@@H](O)CCN)n1 [Example 39, (S)-3-Amino-1-(6-((2-propylpentyl)oxy)pyridin-2-yl)propan-1-ol] | ≦0.1 μM
33 | NCC[C@@H](O)c1cccc(OCCc2ccccc2)n1 [Example 41, (R)-3-Amino-1-(6-phenethoxypyridin-2-yl)propan-1-ol] | ≦0.1 μM
34 | CCCC(CCC)COc1cccc(C(O)CCNC)n1 (stereo not shown) [Example 43, 3-(Methylamino)-1-(6-((2-propylpentyl)oxy)pyridin-2-yl)propan-1-ol] | ≦0.1 μM
